Test results as given in PubChem BioAssay AID493014 (National Center for Advancing Translational Sciences (NCATS), 2011).
The campaign covered roughly 340,000 compounds. About 170 (0.05%) were called active. The shares of active, inactive and inconclusive entries below differ from those in the screen. Calls come from the whole dose curve; as a rule, active = well fitted inhibition curve with a large enough effect in the signal ratio, with a control signal flat (not every such curve was filed as active); inconclusive = small, poorly fitted or top-dose-only effect, or effect the other way, or a change in a side signal; inactive = flat fitted curve, though single readings scatter; the % refers to the signal ratio. Potencies beside an inconclusive call are fits to weak or partial responses and may not hold up.

assay: qHTS Assay to Find Inhibitors of Chronic Active B-Cell Receptor Signaling; settings: ABC-DLBCL IkBa-CBG/CBR reporter, luminescence ratio (green luciferase fused to IkBa over red control in TMD8 lymphoma cells), 4 h; activity change, negative = inhibition: at 46.1 µM (top of the series);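 for activity change, negative = inhibition: plate controls were basal doxycycline-induced cells for no effect and cells given 10 µM MG132 for full effect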
Outline: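 Concentration-response series (up to 46 uM) were applied to TMD8 dual-reporter cells for 4 h at 37C with doxycycline. Green/red ratio, after filter-overlap correction, defined %Activity; red signal alone was normalised to basal cells and zero luminescence.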
Potency is the fitted concentration of half-maximal effect.

| Compound | activity change, negative = inhibition | Potency |
| --- | --- | --- |
| CC(=O)Nc1ccc(C)cc1 | inconclusive: -5.48% | – |
| CC(=O)c1c(C)[nH]c(C(=O)OCC(=O)Nc2cc(C(F)(F)F)ccc2N2CCOCC2)c1C | – | inconclusive: 15.8 µM [falling, single point] |
| O=C(COC(=O)c1ccccc1C(=O)c1ccc(Cl)c([N+](=O)[O-])c1)NC1CC1 | – | inconclusive: 6.31 µM [rising, partial curve, poor fit] |
| Cc1ccc(NC(=O)c2cc(C)on2)cc1 | inconclusive: -11.8% | – |
| COc1ccc(OC)c(NS(=O)(=O)Cc2ccccc2)c1 | inactive | – |
| Cc1ccc(NC(=O)CN2C(=O)COc3ccc(S(=O)(=O)N4CCCC4)cc32)c(C)c1 | inactive | – |
| Cc1nn(Cc2ccccc2)c(Cl)c1/C=C/C(=O)OC(C)C(=O)N1CCCC1 (centres undefined) | inconclusive: -2.06% | – |
| COc1ccc(-c2cc(=O)c(C(=O)c3ccc(C)cc3)n[nH]2)cc1 | inconclusive: -17.1% | – |
| COc1cccc(/C=N/Nc2nc3ccccc3[nH]2)c1O | inconclusive: 181% | – |
| Cc1ccc(-n2c(=S)[nH]c3[nH]ncc3c2=O)cc1 | inactive | – |
| Nc1nccnc1C(=O)OCC(=O)c1ccc[nH]1 | inconclusive: -12.5% | – |
| CN(C)c1ccnc2sc(C(=O)NCc3ccccc3)c(N)c12 | – | inconclusive: 23.1 µM [falling, partial curve, poor fit] |
| Cc1csc(NC(=O)C2CC(=O)N(c3ccc4c(c3)OCCO4)C2)n1 (centres undefined) | inactive | – |
| COc1ccc(-c2cc(=O)oc3c(C)c(OCC(=O)NCCCn4ccnc4)ccc23)cc1 | inconclusive: 1.73% | – |
| Cc1ccccc1OCc1nc2ccccc2c(=O)n1N | inactive | – |
| COc1ccccc1N1CCN(C(=O)c2cc3c(s2)-c2ccccc2OC3)CC1 | inactive | – |
| CC(C)(C)C(=O)NC1CC(=O)N(c2ccc3c(c2)OCCO3)C1 (centres undefined) | inactive | – |
| Cc1ccccc1C(=O)N1CCC(C(=O)Nc2cc(C(F)(F)F)ccc2N2CCCC2)CC1 | inconclusive: -2.62% | – |
| OCCNc1nc(N2CCOCC2)nc(N2CCOCC2)n1 | – | inconclusive: 14.1 µM [falling, partial curve, poor fit] |
| O=S(=O)(NCC(c1ccco1)N1CCCCC1)c1ccccc1C(F)(F)F (centres undefined) | inconclusive: -7.51% | – |
| Cc1cccc(OCCn2cnc(Cl)c2Cl)c1 | – | inconclusive: 0.1 µM [falling, full curve, poor fit] |
| COc1ccccc1-c1cc2ccccc2[nH]1 | inconclusive: 4.49% | – |
| Cc1nc2ccccc2c2nc(NC(=O)Cc3ccccc3)nn12 | inconclusive: 0.109% | – |
| CC(C)C(C(=O)NCc1ccco1)N(C(=O)CNS(=O)(=O)c1ccccc1)C1CCCC1 (centres undefined) | inconclusive: -7.88% | – |

Single entries from the list.
activity change, negative = inhibition with Cc1nc2ccccc2c2nc(NC(=O)Cc3ccccc3)nn12 reads inconclusive: 0.109%
activity change, negative = inhibition with Cc1ccc(NC(=O)CN2C(=O)COc3ccc(S(=O)(=O)N4CCCC4)cc32)c(C)c1 reads inactive
